Values from PubChem BioAssay AID1224830 (NIAID, 2016).
Shown is one part, drawn at random, of about 18,000 reagents tested. About 2,900 of all reagents (16%) count as active. 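Calls are made per well; low scores hint the gene aids the LPS response, high scores that it dampens it.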 Repeated entries: four replicate wells of each siRNA pool.

- Screen: 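Host factors that control LPS-induced TNF expression in human macrophages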 (primary screen)
- Cells: human THP-1 monocytic leukaemia cells, TNF dual-luciferase reporter clone, PMA-differentiated to macrophage-like cells
- Reagent: siRNA pool against human genes, 50 nM
- Duration: LPS for 4 h, given about 3 days after siRNA transfection
- Challenge: bacterial LPS (TLR4 ligand), 10 ng/ml
- Measured: 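Ratio of firefly to renilla light, scaled to the plate median and expressed as a robust z-score per replicate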
- Reading the numbers: TNF reporter robust z-score: higher = stronger TNF reporter response to LPS
- Active means: 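a well is active when its z-score exceeds 2.8 or falls below -1.5; control wells carry no call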

The opening 6 records as a preview:
gene | PubChem SID | TNF reporter robust z-score | activity call
EXD2 | SID315457507 | -0.41 | inactive
EXD2 | SID315457507 | -0.11 | inactive
EXD2 | SID315457507 | 1.15 | inactive
EXD2 | SID315457507 | 1.01 | inactive
VANGL1 | SID315459953 | 0.14 | inactive
VANGL1 | SID315459953 | -0.37 | inactive

Main list, from the first entry:
gene | PubChem SID | TNF reporter robust z-score | activity call
EXD2 | SID315457507 | -0.41 | inactive
EXD2 | SID315457507 | -0.11 | inactive
EXD2 | SID315457507 | 1.15 | inactive
EXD2 | SID315457507 | 1.01 | inactive
VANGL1 | SID315459953 | 0.14 | inactive
VANGL1 | SID315459953 | -0.37 | inactive
VANGL1 | SID315459953 | -0.39 | inactive
VANGL1 | SID315459953 | -0.61 | inactive
PCDHA10 | SID315458020 | 0.73 | inactive
PCDHA10 | SID315458020 | 1.11 | inactive
PCDHA10 | SID315458020 | 0.34 | inactive
PCDHA10 | SID315458020 | 0.11 | inactive
WWC3 | SID315457899 | -1.22 | inactive
WWC3 | SID315457899 | 0.91 | inactive
WWC3 | SID315457899 | 0.51 | inactive
WWC3 | SID315457899 | 0.25 | inactive
HMGCS1 | SID315449233 | -0.96 | inactive
HMGCS1 | SID315449233 | -0.97 | inactive
HMGCS1 | SID315449233 | -0.55 | inactive
HMGCS1 | SID315449233 | -0.11 | inactive
TP53 | SID315451942 | -1.03 | inactive
TP53 | SID315451942 | -0.37 | inactive
TP53 | SID315451942 | -0.57 | inactive
TP53 | SID315451942 | 0.06 | inactive
UGT3A2 | SID315462850 | 1.44 | inactive
UGT3A2 | SID315462850 | 1.14 | inactive
UGT3A2 | SID315462850 | 0.9 | inactive
UGT3A2 | SID315462850 | 1.11 | inactive
ZAN | SID315452131 | 0.11 | inactive
ZAN | SID315452131 | 2.07 | inactive
ZAN | SID315452131 | 1.53 | inactive
ZAN | SID315452131 | 0.98 | inactive
WDR46 | SID315453172 | -0.59 | inactive
WDR46 | SID315453172 | -0.16 | inactive
WDR46 | SID315453172 | -0.67 | inactive
WDR46 | SID315453172 | -0.14 | inactive
NGEF | SID315455462 | 1.45 | inactive
NGEF | SID315455462 | 0.62 | inactive
NGEF | SID315455462 | 0.22 | inactive
NGEF | SID315455462 | -0.23 | inactive
PDIA6 | SID315453842 | -0.58 | inactive
PDIA6 | SID315453842 | -0.63 | inactive
PDIA6 | SID315453842 | -1.03 | inactive
PDIA6 | SID315453842 | -0.11 | inactive
KRT80 | SID315462225 | -1.01 | inactive
KRT80 | SID315462225 | 0.19 | inactive
KRT80 | SID315462225 | 0.34 | inactive
KRT80 | SID315462225 | 0.63 | inactive
TMPRSS11A | SID315464057 | -0.32 | inactive
TMPRSS11A | SID315464057 | -0.64 | inactive
TMPRSS11A | SID315464057 | -0.47 | inactive
TMPRSS11A | SID315464057 | 2.08 | inactive
NANOG | SID315459565 | 0.18 | inactive
NANOG | SID315459565 | -1 | inactive
NANOG | SID315459565 | -0.75 | inactive
NANOG | SID315459565 | -0.55 | inactive
SEMA3G | SID315458162 | 0.07 | inactive
SEMA3G | SID315458162 | 0.48 | inactive
SEMA3G | SID315458162 | 0.18 | inactive
SEMA3G | SID315458162 | 1.02 | inactive
ALDH3B2 | SID315447272 | 1.14 | inactive
ALDH3B2 | SID315447272 | 2.17 | inactive
ALDH3B2 | SID315447272 | 0.84 | inactive
ALDH3B2 | SID315447272 | 1.77 | inactive
SDR42E1 | SID315461080 | -0.88 | inactive
SDR42E1 | SID315461080 | 0.3 | inactive
SDR42E1 | SID315461080 | 0.53 | inactive
SDR42E1 | SID315461080 | -0.59 | inactive
SETD5 | SID315457498 | 1.66 | inactive
SETD5 | SID315457498 | -0.71 | inactive
SETD5 | SID315457498 | -0.68 | inactive
SETD5 | SID315457498 | -0.36 | inactive
ASMTL | SID315452694 | -1.57 | active
ASMTL | SID315452694 | -1.26 | inactive
ASMTL | SID315452694 | -1.44 | inactive
ASMTL | SID315452694 | -1.23 | inactive
